Laboratory results: article doi:10.1101/2024.05.31.596839
Results are given in words; binding and its absence hold for the method and conditions named. For part of these data: Tags and fused reporters may be left off the sequences shown. Values belong to the binder of their own block, whether it stands above or below them.

Columns and labels:
Assay in all cases: ReLo
[1] = target: T1, Vreteno (Drosophila) (UniProt Q9VCU7)
T1 sequence: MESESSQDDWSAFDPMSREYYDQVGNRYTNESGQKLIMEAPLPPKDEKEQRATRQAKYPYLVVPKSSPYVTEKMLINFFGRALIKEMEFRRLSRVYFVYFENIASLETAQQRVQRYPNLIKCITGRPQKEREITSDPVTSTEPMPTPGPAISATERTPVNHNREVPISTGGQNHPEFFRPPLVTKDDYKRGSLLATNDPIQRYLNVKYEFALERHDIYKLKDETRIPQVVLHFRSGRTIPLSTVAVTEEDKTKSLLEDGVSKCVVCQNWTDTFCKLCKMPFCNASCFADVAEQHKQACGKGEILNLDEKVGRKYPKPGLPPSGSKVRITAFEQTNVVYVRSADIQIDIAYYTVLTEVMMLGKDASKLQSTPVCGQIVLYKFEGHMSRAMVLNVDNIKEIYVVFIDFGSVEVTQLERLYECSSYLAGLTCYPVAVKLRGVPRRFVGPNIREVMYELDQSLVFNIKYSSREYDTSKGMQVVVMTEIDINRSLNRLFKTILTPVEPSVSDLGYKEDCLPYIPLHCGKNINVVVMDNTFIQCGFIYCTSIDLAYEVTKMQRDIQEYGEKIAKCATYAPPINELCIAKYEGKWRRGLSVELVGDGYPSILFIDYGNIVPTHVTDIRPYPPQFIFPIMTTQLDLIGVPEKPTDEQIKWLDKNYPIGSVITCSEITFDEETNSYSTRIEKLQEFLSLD

[2] = target: T2, Aubergine (Drosophila), O76922; conditions: remark: other sources report otherwise
T2 chain: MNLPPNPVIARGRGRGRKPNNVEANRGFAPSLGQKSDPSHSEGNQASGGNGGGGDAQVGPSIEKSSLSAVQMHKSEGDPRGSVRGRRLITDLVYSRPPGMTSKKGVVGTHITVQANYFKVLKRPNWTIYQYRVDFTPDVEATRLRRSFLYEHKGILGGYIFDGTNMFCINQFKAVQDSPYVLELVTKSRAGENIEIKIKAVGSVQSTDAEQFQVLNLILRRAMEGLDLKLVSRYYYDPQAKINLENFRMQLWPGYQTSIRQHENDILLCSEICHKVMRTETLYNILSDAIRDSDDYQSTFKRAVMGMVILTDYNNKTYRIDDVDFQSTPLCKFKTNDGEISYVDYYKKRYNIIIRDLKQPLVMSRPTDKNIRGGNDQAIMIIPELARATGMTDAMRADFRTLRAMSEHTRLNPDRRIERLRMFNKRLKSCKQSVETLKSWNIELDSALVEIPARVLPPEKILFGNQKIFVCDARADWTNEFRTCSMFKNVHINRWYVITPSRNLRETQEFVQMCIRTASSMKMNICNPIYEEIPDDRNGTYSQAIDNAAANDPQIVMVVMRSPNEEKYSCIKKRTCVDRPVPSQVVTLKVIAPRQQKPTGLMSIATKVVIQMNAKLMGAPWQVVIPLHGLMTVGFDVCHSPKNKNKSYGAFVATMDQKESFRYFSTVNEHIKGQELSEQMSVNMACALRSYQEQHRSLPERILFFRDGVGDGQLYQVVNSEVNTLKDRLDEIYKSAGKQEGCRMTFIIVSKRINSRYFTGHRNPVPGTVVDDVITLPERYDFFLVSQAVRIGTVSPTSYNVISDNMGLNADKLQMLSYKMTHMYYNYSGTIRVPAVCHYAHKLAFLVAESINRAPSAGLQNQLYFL

[3] = target: T3, Spindle E (Drosophila), Q9VF26; conditions: remark: other sources report otherwise
T3 chain: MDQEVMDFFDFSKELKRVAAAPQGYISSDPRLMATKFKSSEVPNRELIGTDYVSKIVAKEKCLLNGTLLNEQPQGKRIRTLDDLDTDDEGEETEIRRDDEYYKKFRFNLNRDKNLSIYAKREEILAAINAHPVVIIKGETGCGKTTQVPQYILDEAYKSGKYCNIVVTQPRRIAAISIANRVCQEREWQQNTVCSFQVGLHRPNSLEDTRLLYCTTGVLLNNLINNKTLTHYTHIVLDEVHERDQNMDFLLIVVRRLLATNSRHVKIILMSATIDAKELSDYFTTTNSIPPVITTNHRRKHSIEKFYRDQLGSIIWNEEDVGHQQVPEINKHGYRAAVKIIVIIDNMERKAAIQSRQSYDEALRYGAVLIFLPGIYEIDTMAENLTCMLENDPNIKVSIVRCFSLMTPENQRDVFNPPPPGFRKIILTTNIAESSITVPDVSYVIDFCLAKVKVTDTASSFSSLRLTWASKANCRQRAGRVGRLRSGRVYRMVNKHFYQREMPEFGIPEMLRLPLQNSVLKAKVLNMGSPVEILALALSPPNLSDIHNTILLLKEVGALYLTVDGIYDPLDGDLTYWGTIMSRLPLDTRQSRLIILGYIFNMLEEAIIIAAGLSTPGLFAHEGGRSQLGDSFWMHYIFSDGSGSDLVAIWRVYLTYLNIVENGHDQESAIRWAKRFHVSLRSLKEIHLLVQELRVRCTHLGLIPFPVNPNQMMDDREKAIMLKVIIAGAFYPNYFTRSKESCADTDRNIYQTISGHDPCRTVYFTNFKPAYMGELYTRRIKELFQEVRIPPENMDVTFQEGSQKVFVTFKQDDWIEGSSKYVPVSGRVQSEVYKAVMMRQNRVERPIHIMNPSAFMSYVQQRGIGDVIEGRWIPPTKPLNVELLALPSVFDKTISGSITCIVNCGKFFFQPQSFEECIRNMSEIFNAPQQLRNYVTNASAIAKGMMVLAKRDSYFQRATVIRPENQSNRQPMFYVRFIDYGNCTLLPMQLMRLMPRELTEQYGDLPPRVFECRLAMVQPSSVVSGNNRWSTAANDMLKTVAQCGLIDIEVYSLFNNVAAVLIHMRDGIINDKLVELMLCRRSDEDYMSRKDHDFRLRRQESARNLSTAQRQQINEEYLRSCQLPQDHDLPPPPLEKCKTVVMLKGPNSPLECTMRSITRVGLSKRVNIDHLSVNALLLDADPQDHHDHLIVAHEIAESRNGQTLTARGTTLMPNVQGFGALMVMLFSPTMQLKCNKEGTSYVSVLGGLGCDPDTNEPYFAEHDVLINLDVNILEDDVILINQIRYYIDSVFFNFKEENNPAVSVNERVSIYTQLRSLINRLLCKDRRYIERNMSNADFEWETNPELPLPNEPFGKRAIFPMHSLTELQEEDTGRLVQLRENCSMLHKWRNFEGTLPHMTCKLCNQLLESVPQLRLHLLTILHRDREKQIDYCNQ

- binding [1]: no binding
B1: Armitage (protein, UniProt Q6J5K9 1-1188)
chain: MFTYVSKFFTNPDRNREDILESLDRENSFLDQKLMEEKMDQQLKANPNEINGVLSNKIAELTHGLSEMDVSKESSCTARKGVITSLDGDRGVIDKDVLFETKVAEDIILDLHVGCVVEYLTFTTGEAMRVVKVKSILEHSWEDTSQKEIEKAVDNLKNEKPTFFNTETRSVLGLISQRLASSIDVETEYGQLTVELDNIEMNFIPTNGDRVRLECNIQLDDGFVDKQGEILEVTKLFPTRIQEGEKCIVERVYVHMVVLGPETYILKTDLPTGTDLHLGDIVLADLIECQYSKFTRRAIKITPLEKNFGATKLTQQSSMGSSGSGKAVTVTGVNRFITAELWQKESVSLKLTNNLNRTLRLESITVCNDSESQLSVVSPLESKEISSGSEITVTFEIHTQFLGEAIEKYVLNFDLLKVRRVFTVIVCKTKEEVAEAEKRMIAAEALMAPGRNSQERSRFYANQVWCNKVDVIPGQQIVTKRRFVALRLGCFEVPKELRQICLTSERRQEMIKAIEQHYSFLTEPLSIKTYMHRFRLLLHLEEIECFVNFRNYDRDRAHFLRDGEFLTLQIENLAERRPSLVIGDTLRVINPWSDPDSQTTKSYEGIIHKVLFDRILLKFHSSFQEKYNGEDYRLEFYFSRYSFRKQHHAISKIVGVMGEDFLFPSKVTKRENPQLDVYMKDDDMYLYDSKLEWYNQSLNSIQKRAVFNILRGEAENIPYVLFGPPGSGKTMTLIETLLQLVRNLPGARILVGTPSNSSADLVTKRLIDSKALLQGDFIRLVSYNQVEKDLIPPEIMSYCATSDVGAVGSCEDKMMVTESGLKLRCQAKFIGTHRITISTCTTLGNFLQLGFPAGHFTHVLFDEAGQCTEPETMVPIVMLTKKRSQVVLSGDPRQLQSIVTSRIASKMGFSISFLERLLERSPYRKDLQRFPESSGYNPLVLTKLLYNYRALPSIMSIYSRLFYDDELIPVLSEKDSRESRLLSKLRCVFESEKDIPQAHGTFFYGIIGENRQNNDSPSWFNPQEVREVFLMTIALYRANVTADQIGIITPYQKQVKMLRSMFIGTDVVMPKIGSVEEFQGQERDIILISTVRSSEEILRMDARFSLGFVRCSKRLNVAVSRARAMMIIFGNPHLLAVDECWRQLILFCVKNNAYFGCDLPQMVINQKDEVPVCLETFVPSLNTTDDLN

- binding [2]: no binding
- binding [3]: no binding
B2: Vasa, P09052 1-661 (protein)
chain: MSDDWDDEPIVDTRGARGGDWSDDEDTAKSFSGEAEGDGVGGSGGEGGGYQGGNRDVFGRIGGGRGGGAGGYRGGNRDGGGFHGGRREGERDFRGGEGGFRGGQGGSRGGQGGSRGGQGGFRGGEGGFRGRLYENEDGDERRGRLDREERGGERRGRLDREERGGERGERGDGGFARRRRNEDDINNNNNIVEDVERKREFYIPPEPSNDAIEIFSSGIASGIHFSKYNNIPVKVTGSDVPQPIQHFTSADLRDIIIDNVNKSGYKIPTPIQKCSIPVISSGRDLMACAQTGSGKTAAFLLPILSKLLEDPHELELGRPQVVIVSPTRELAIQIFNEARKFAFESYLKIGIVYGGTSFRHQNECITRGCHVVIATPGRLLDFVDRTFITFEDTRFVVLDEADRMLDMGFSEDMRRIMTHVTMRPEHQTLMFSATFPEEIQRMAGEFLKNYVFVAIGIVGGACSDVKQTIYEVNKYAKRSKLIEILSEQADGTIVFVETKRGADFLASFLSEKEFPTTSIHGDRLQSQREQALRDFKNGSMKVLIATSVASRGLDIKNIKHVINYDMPSKIDDYVHRIGRTGRVGNNGRATSFFDPEKDRAIAADLVKILEGSGQTVPDFLRTCGAGGDGGYSNQNFGGVDVRGRGNYVGDATNVEEEEQWD
